This is an account of results in PubChem BioAssay AID248 (DTP/NCI, 2004).

The list does not hold the whole screen: it gathers tests that were run many times, whatever their T/C, doses with no T/C, and many T/C values between a quarter and a half above the control. Other doses and runs of a compound stand elsewhere. T/C is the treated group as % of the vehicle group. Some entries give survivors of the animals treated and no T/C: the source holds a T/C of zero for them, seemingly a mark for toxic or unscored doses. Some survivor counts are full or nearly so, which does not show that the dose was tolerated: survival well below the control is almost never listed, so the zero probably covers shortened survival too. Survivors were counted at the toxicity check, usually on the fifth day, unless a day is given; later deaths do not show. Schedules are NCI's codes, read here as Q, the interval in days (D) or hours (H), X, the number of doses. Some schedule codes hold Z or #, which are not explained here. Some doses were run more than once; the values are given in rising order.

For the test, the system named is L1210 leukemia ip in BDF1 mice, survival T/C. Put plainly: NCI In Vivo Anticancer Drug Screen. Data for tumor model L1210 Leukemia (intraperitoneal) in B6D2F1 (BDF1) mice. The note with it: T/C endpoint: mean survival time, higher T/C = longer survival.
The mark [1] stands for this setting: dose: 400.0 mg/kg/injection, schedule: Q04DX002 (ip), vehicle: Klucel (hydroxypropylcellulose) (HPC).
The mark [2] stands for this setting: dose: 400.0 mg/kg/injection, schedule: Q04DX003 (ip), vehicle: Klucel (hydroxypropylcellulose) (HPC).
Where [3] appears, read: dose: 400.0 mg/kg/injection, schedule: Q01DX009 (ip), vehicle: Klucel (hydroxypropylcellulose) (HPC).
Setting [4] is: dose: 400.0 mg/kg/injection, schedule: Q01DX001 (ip), vehicle: saline.
Where [5] appears, read: dose: 150.0 mg/kg/injection, schedule: Q01DX001 (ip), vehicle: saline.
Setting [6] is: dose: 300.0 mg/kg/injection, schedule: Q01DX001 (ip), vehicle: saline.
Setting [7] is: dose: 200.0 mg/kg/injection, schedule: Q01DX009 (ip), vehicle: Klucel (hydroxypropylcellulose) (HPC).
The mark [8] stands for this setting: dose: 400.0 mg/kg/injection, schedule: Q01DX001 (ip), vehicle: saline with Tween-80.
Where [9] appears, read: dose: 75.0 mg/kg/injection, schedule: Q01DX001 (ip), vehicle: saline.
[10] abbreviates: dose: 400.0 mg/kg/injection, schedule: Q01DX001 (ip), vehicle: carboxymethylcellulose (CMC).
Where [11] appears, read: dose: 100.0 mg/kg/injection, schedule: Q01DX009 (ip), vehicle: saline.
[12] abbreviates: dose: 200.0 mg/kg/injection, schedule: Q01DX009 (ip), vehicle: saline.
Setting [13] is: dose: 400.0 mg/kg/injection, schedule: Q01DX009 (ip), vehicle: saline.

`O=C1C=Cc2ccccc2/C1=C/c1nc(-c2ccc(Cl)cc2)oc1O`: the survivor count under setting [1] is listed as 3 of 3.

For the compound `Cc1ccc(C(C)C)cc1NC(=O)NCCCl`, the survivor count under setting [2] is on record as 2 of 6.

Turning to `CN=C(NC)c1ccc(NC(=O)c2ccc(C(=O)Nc3ccc(C(=NC)NC)c(OC)c3)c(Cl)c2)cc1OC`, the survivor count (dose: 1.9 mg/kg/injection, schedule: Q01DX Z (ip), vehicle: saline) is recorded as 3 of 6; the survivor count (dose: 2.9 mg/kg/injection, schedule: Q01DX Z (ip), vehicle: saline) was 0 of 6; the survivor count (dose: 4.4 mg/kg/injection, schedule: Q01DX Z (ip), vehicle: saline) was 0 of 6 and 3 of 6; the survivor count (dose: 6.6 mg/kg/injection, schedule: Q01DX Z (ip), vehicle: saline) is 0 of 6; the survivor count (dose: 10.0 mg/kg/injection, schedule: Q01DX Z (ip), vehicle: saline) is on record as 0 of 6; the survivor count (dose: 15.0 mg/kg/injection, schedule: Q01DX Z (ip), vehicle: saline) is on record as 0 of 6. Moreover, the survivor count by setting is: (dose: 30.0 mg/kg/injection, schedule: Q01DX Z (ip), vehicle: saline) 0 of 6; (dose: 60.0 mg/kg/injection, schedule: Q01DX Z (ip), vehicle: saline) 0 of 6; (dose: 120.0 mg/kg/injection, schedule: Q01DX Z (ip), vehicle: saline) 0 of 6.

For the compound `CC(=O)/C=C\c1ccc([N+](=O)[O-])o1`, under setting [1], the survivor count is listed as 2 of 3.

As to `O=Cc1ccc(N2CCCCC2)cc1`, under setting [3], the survivor count is reported as 0 of 6.

In the case of `COc1cc2c3c(c1)-c1c(ccc(OC)c1O)CC3N(C)CC2` (stereo not drawn), the survivor count reads like this: (dose: 200.0 mg/kg/injection, schedule: Q04DX003 (ip), vehicle: DMSO) 1 of 5; (dose: 400.0 mg/kg/injection, schedule: Q04DX003 (ip), vehicle: DMSO) 0 of 5.

Consider `CCN(CC)c1ccc(/C=N/Nc2nnc(N/N=C/c3ccc(N(CC)CC)cc3)c3ccccc23)cc1`, for which, under setting [4], the survivor count was 2 of 4.

`[N-]=[N+]=C1Cc2ccccc2C1=O`: the survivor count under setting [3] is given as 6 of 6.

As to `c1ccc2c[n+](Cc3nc4ccccc4[nH]3)ccc2c1`, the survivor count was 1 of 6 under setting [5] and 1 of 6 under setting [6].

For the compound `Cc1ccc(SC2CC3CC2C2COCC32)cc1` (stereo not drawn), the survivor count is given as 0 of 6 under setting [7] and 3 of 6 under setting [2].

Turning to `CC(=O)NC1CCC(CC(=O)O)CC1` (stereo not drawn), under setting [3], the survivor count is 6 of 6.

As to `N#C/C(=C\C1CC(Br)CCC1O)C1CCC([N+](=O)[O-])CC1` (stereo not drawn), the survivor count (dose: 400.0 mg/kg/injection, schedule: Q04DX002 (ip), vehicle: saline with Tween-80) was 1 of 3.

For the compound `CC[CH2][Pb]([CH2]CC)([CH2]CC)[N]1C(=O)c2ccccc2C1=O`, the survivor count reads like this: (dose: 12.5 mg/kg/injection, schedule: Q01DX009 (ip), vehicle: saline) 5 of 6; (dose: 25.0 mg/kg/injection, schedule: Q04DX002 (ip), vehicle: saline) 2 of 3; (dose: 50.0 mg/kg/injection, schedule: Q04DX002 (ip), vehicle: saline) 0 of 3; (dose: 100.0 mg/kg/injection, schedule: Q04DX002 (ip), vehicle: saline) 1 of 3; (dose: 200.0 mg/kg/injection, schedule: Q04DX002 (ip), vehicle: saline) 3 of 3; (dose: 400.0 mg/kg/injection, schedule: Q04DX002 (ip), vehicle: saline) 1 of 3.

Take `O=C1c2ccccc2-c2cccc3ccc(Cc4ccccc4)c1c23`: the survivor count under setting [8] is 3 of 3.

For `CC[N+](C)(CC)CCCNC(c1ccc(Cl)cc1)C(Cl)(Cl)Cl` (stereo not drawn), the survivor count runs as follows: under setting [9], 0 of 6; under setting [5], 0 of 6; under setting [6], 0 of 6.

With `CC(=O)C=P(c1ccccc1)(c1ccccc1)c1ccccc1`, the survivor count under setting [10] is reported as 0 of 4.

Regarding `[O-][n+]1ccccc1-c1ccccc1`, the survivor count under setting [1] is listed as 1 of 3.

Consider `CCOP(=O)(OCC)O/N=C(/SC)C(C)C`, for which the survivor count is, setting by setting: under setting [9], 3 of 6; under setting [5], 0 of 6; under setting [6], 0 of 6.

`O=C1CC(Cl)C(=O)N1c1ccccc1` (stereo not drawn): where the note is “dose: 300.0 mg/kg/injection, schedule: Q01DX009 (ip), vehicle: saline with Tween-80”, the survivor count is given as 0 of 6.

For the compound `CC1=NCC[N-]CC[N-]CCN=C(C)C2CCCC1[N-]2.[Mn+3]`, the survivor count by setting is: (dose: 80.0 mg/kg/injection, schedule: Q01DX001 (ip), vehicle: saline) 0 of 4; (dose: 100.0 mg/kg/injection, schedule: Q01DX001 (ip), vehicle: saline) 0 of 4; (dose: 200.0 mg/kg/injection, schedule: Q01DX001 (ip), vehicle: saline) 0 of 4; under setting [4], 0 of 4.

In the case of `C1COC(N2CC3CCC(CC3)C2)=N1`, the survivor count under setting [6] is on record as 0 of 6.

In the case of `O=C(Oc1ccccc1I)c1cc(I)c(I)c(I)c1`, the survivor count (dose: 200.0 mg/kg/injection, schedule: Q04DX003 (ip), vehicle: Klucel (hydroxypropylcellulose) (HPC)) is listed as 5 of 6.

For `Cc1ccc2scc3c4ccccc4nc-3c2c1`, the survivor count under setting [11] is on record as 2 of 6.

Take `CNCC(C)CN1CCCCCc2ccccc21` (stereo not drawn): the survivor count runs as follows: under setting [11], 0 of 6; under setting [12], 0 of 6; under setting [13], 0 of 6.

`CCOc1cc(N)nc(N)c1[N+](=O)[O-]`: the survivor count under setting [10] is recorded as 1 of 6.

For `CC(C)CCc1c(N)nc(NCCCc2ccccc2)nc1N`, where the note is “dose: 400.0 mg/kg/injection, schedule: Q01DX001 (ip), vehicle: Klucel (hydroxypropylcellulose) (HPC)”, the survivor count is 0 of 6.

Regarding `CCOC(=O)c1ccc(N=NNc2ccc(C(=O)OCC)cc2)cc1`, the survivor count is recorded as 6 of 6 (dose: 100.0 mg/kg/injection, schedule: Q01DX Z (ip), vehicle: other) and 6 of 6 (dose: 300.0 mg/kg/injection, schedule: Q01DX Z (ip), vehicle: other).

`CCN(CC)CCOC(=O)C(S)(c1ccccc1)c1ccccc1`: the survivor count is given as 2 of 6 (dose: 150.0 mg/kg/injection, schedule: Q01DX001 (ip), vehicle: other) and 0 of 6 (dose: 300.0 mg/kg/injection, schedule: Q01DX001 (ip), vehicle: other).

As for `[Cl][Hg][c]1cccs1`, the survivor count by setting is: (dose: 50.0 mg/kg/injection, schedule: Q01DX009 (ip), vehicle: Klucel (hydroxypropylcellulose) (HPC)) 0 of 6; (dose: 100.0 mg/kg/injection, schedule: Q01DX009 (ip), vehicle: Klucel (hydroxypropylcellulose) (HPC)) 0 of 6; under setting [7], 0 of 6; under setting [3], 0 of 6.

Turning to `CC1(C(=O)O)CC12c1ccccc1-c1ccccc12` (stereo not drawn), the survivor count (dose: 400.0 mg/kg/injection, schedule: Q01DX001 (ip), vehicle: acetone) is on record as 3 of 6.

With `CCc1cc(CC)c(S(=O)(=O)O)c(CC)c1CC`, the survivor count is, setting by setting: under setting [12], 0 of 6; under setting [13], 0 of 6.

Turning to `Nc1ncc(CNc2ccc(C(=O)O)cc2)c(N)n1`, the survivor count under setting [4] is listed as 2 of 4.

For `O=C(O)c1ccc(CCc2cccnc2)cc1`, under setting [8], the survivor count is 2 of 6.

On to `C=CCc1cc(OC)cc(C(=O)c2cccc(OC)c2C#N)c1OC`, for which the survivor count (dose: 100.0 mg/kg/injection, schedule: Q04DX002 (ip), vehicle: other) was 3 of 3.

On to `CCCCCCCCCC[n+]1cccc(C(N)=O)c1`, for which the survivor count runs as follows: (dose: 100.0 mg/kg/injection, schedule: Q04DX003 (ip), vehicle: saline with Tween-80) 0 of 6; (dose: 200.0 mg/kg/injection, schedule: Q04DX003 (ip), vehicle: saline with Tween-80) 0 of 6; (dose: 400.0 mg/kg/injection, schedule: Q04DX003 (ip), vehicle: saline with Tween-80) 0 of 6.
